# Results: PubChem BioAssay AID2685 (National Center for Advancing Translational Sciences (NCATS), 2010)
# The list shows a part of the results. These are further read-outs of the screen, such as a control signal, another cell line or another target. No call is given for them. Most of these compounds were active or inconclusive in the main read-out, so they are no random draw. The note in brackets gives the kind of curve behind each potency; many fits are weak.
# Experiment: qHTS Assay for Lipid Storage Modulators in Drosophila S3 Cells;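 on cell number change: cells counted by Cell Tracker Red CMTPX staining in the red channel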
# Conditions: BODIPY lipid droplet fluorescence, 18-24 h; for cell number change: measured here: cell count max response, cells fed with added oleic acid
# Procedure, shortened: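 Drosophila S3 cells got compounds at several concentrations plus oleic acid (400 uM solution). Laser-scanning cytometry with 488 nm excitation read lipid droplets at 500-530 nm and cells at 575-640 nm. Percent activity was relative to 20 uM Triacsin C.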
# [1] = measured here: lipid fluorescence (Fed channel) AC50, cells fed with added oleic acid
# [2] = measured here: cell number channel AC50, cells fed with added oleic acid
Compound,cell number change,AC50 [1],AC50 [2]
COCCOC(=O)C1=C(C)NC(=O)NC1c1ccc(Cl)cc1 (stereo unspecified),-1.99%,"0.146 µM [rising, full curve, poor fit]",
Cc1[nH]c2c(Cl)cccc2c1CCNC(=O)C1CCCCC1C(=O)OCC(F)(F)F (stereo unspecified),13.4%,"3.66 µM [rising, full curve, poor fit]",
Cc1ccc(NS(=O)(=O)c2cc(C(=O)N3CCc4ccccc4C3)ccc2Cl)cc1,145%,"23.1 µM [rising, single point]",
Cc1nc(C)c(-c2csc(Nc3ncccc3C)n2)s1,-36%,"0.651 µM [rising, full curve]","20.6 µM [falling, single point]"
COc1cc(C(=O)Nn2c(C)nc3ccccc3c2=O)cc(OC)c1OC,20.7%,,
N#Cc1ccc(N2CCN(C(=O)c3cccc(F)c3)CC2)c(F)c1,16.1%,"23.1 µM [rising, single point]",
C/C(=N\NC(=O)CNc1ccc(F)cc1)c1cc2ccccc2o1,-2.32%,"1.3 µM [rising, full curve]",
O=c1[nH]c(C2CCCN(S(=O)(=O)c3ccccc3)C2)nc2c1nnn2Cc1cccc(Cl)c1 (stereo unspecified),,"3.26 µM [falling, full curve]",
Cc1nc2sc(C(N)=O)c(N)c2c2c1CCCC2,17.1%,"1.3 µM [rising, full curve]",
CCOc1ccc(S(=O)(=O)N2CCCCC2)cc1NC(=O)C1=COCCO1,-54.5%,"20.6 µM [rising, single point]","7.31 µM [falling, single point]"
COCCn1c(C)cc(C(=O)COC(=O)c2[nH]c(C)c(C(C)=O)c2C)c1C,11%,,
CCCc1nc2ccccc2c(=O)n1NC(=O)c1c(O)c2ccccc2n(C)c1=O,3.19%,,
O=C(OCC(=O)c1ccc(S(=O)(=O)N2CCCC2)cc1)C1=COCCO1,17.4%,"4.61 µM [falling, full curve, poor fit]",
C(=C\c1ccccn1)/c1cccnc1,12.9%,"2.31 µM [falling, partial curve]",
CCCCNC(=O)N(c1c(N)n(Cc2ccccc2)c(=O)[nH]c1=O)C1CCCC1,-76.8%,,"1.46 µM [falling, partial curve]"
NCc1cccc(CNc2ccc([N+](=O)[O-])cc2C(N)=O)c1,18.9%,"29.1 µM [falling, single point]",
CC(=O)Nc1ccccc1C(=O)N1CCN(Cc2ccccc2)CC1,40.6%,"29.1 µM [rising, single point]","29.1 µM [rising, single point]"
Oc1ccc(Cl)cc1C1=Nc2ccccc2N=C(c2ccco2)C1,-21.6%,"3.66 µM [falling, single point]","2.06 µM [falling, partial curve, poor fit]"
Cc1c(/C=N\NC(=O)c2c[nH]c3ccccc23)cnn1C,27.3%,,"0.092 µM [rising, full curve, poor fit]"
COc1cc(CN2CCN(c3cccc(C)c3C)CC2)cc(Br)c1O,-21.7%,,

# At a glance, part of the list above:
Compound,cell number change,AC50 [1],AC50 [2]
COc1cc(C(=O)Nn2c(C)nc3ccccc3c2=O)cc(OC)c1OC,20.7%,,
N#Cc1ccc(N2CCN(C(=O)c3cccc(F)c3)CC2)c(F)c1,16.1%,"23.1 µM [rising, single point]",
C/C(=N\NC(=O)CNc1ccc(F)cc1)c1cc2ccccc2o1,-2.32%,"1.3 µM [rising, full curve]",
O=c1[nH]c(C2CCCN(S(=O)(=O)c3ccccc3)C2)nc2c1nnn2Cc1cccc(Cl)c1 (stereo unspecified),,"3.26 µM [falling, full curve]",
Cc1nc2sc(C(N)=O)c(N)c2c2c1CCCC2,17.1%,"1.3 µM [rising, full curve]",
CCOc1ccc(S(=O)(=O)N2CCCCC2)cc1NC(=O)C1=COCCO1,-54.5%,"20.6 µM [rising, single point]","7.31 µM [falling, single point]"
COCCn1c(C)cc(C(=O)COC(=O)c2[nH]c(C)c(C(C)=O)c2C)c1C,11%,,

# The list continues.

Compound,cell number change,AC50 [1],AC50 [2]
CC1(C(=O)OCC(=O)Nc2ccccc2Cl)CC1(Cl)Cl (stereo unspecified),,,"0.164 µM [rising, single point]"
CCC(=O)Nc1cc(C(=O)OCC(=O)c2ccccc2)ccc1C,15.4%,"3.26 µM [rising, partial curve]",
CCN(CCCNC(=O)Cn1ncc2c([nH]c3ccc(C)cc32)c1=O)c1cccc(C)c1,-7.41%,"6.51 µM [falling, single point]",
CC1CCCCN1C(=O)CSCC(=O)Nc1nc(-c2cccs2)cs1 (stereo unspecified),-22%,"18.4 µM [falling, single point]",
COC(=O)C1C(c2ccccc2)NC(=O)NC1(O)C(F)(F)Cl (stereo unspecified),0.146%,,
CSc1cccc(CN2CCCC(CO)(Cc3cccc(Cl)c3)C2)c1 (stereo unspecified),-40.3%,"18.4 µM [falling, single point]","16.4 µM [falling, single point]"
COc1ccc(S(=O)(=O)N(CC(=O)N2CCN(C)CC2)c2ccc(C)cc2)cc1OC,-1.52%,"2.91 µM [rising, partial curve]",
O=C(COC(=O)c1cncc(Br)c1)NCc1ccc2c(c1)OCO2,37.4%,,"6.51 µM [falling, single point]"
Cc1ccc2oc(C(=O)NCCC3CCCCO3)c(C)c2c1 (stereo unspecified),6.94%,"0.58 µM [rising, single point]",
Cc1cc(C)n2nc(SCC(=O)NC(=O)c3ccccc3Cl)nc2n1,-13.1%,,
COc1ccc(C2CC(c3ccccc3)=NN2C(=O)CSc2ncccn2)cc1 (stereo unspecified),,"25.9 µM [falling, single point]",
CC1(C)Cc2c(cnn2-c2ccccc2)C(=O)/C1=N\NC(=O)c1ccccc1N,-1.88%,,
CC(OC(=O)c1snc(C(=O)NC2CCCCC2)c1N)C(=O)NC(C)(C)C (stereo unspecified),-44.6%,"18.4 µM [falling, single point]","20.6 µM [falling, single point]"
CCCCn1c(N)c(N(Cc2ccccc2OC)C(=O)c2c(CC)noc2C)c(=O)[nH]c1=O,3.52%,"0.731 µM [rising, single point]",
Cc1ccc(S(=O)(=O)N2CCC(NC(=O)OC(C)C)CC2)cc1,-38.5%,"9.2 µM [falling, partial curve]","0.517 µM [falling, full curve, poor fit]"
Cn1c(Cc2ccccc2)nnc1SCC(=O)Nc1ccc2c(c1)OCCO2,-12.6%,"0.411 µM [falling, full curve, poor fit]",
O=C(CCC(=O)Nc1ccc(F)cc1)N/N=C/c1cccs1,15.5%,"10 µM [rising, partial curve, poor fit]",
CN(C)/C=C/C(=O)/C=C/c1ccc(Cl)cc1Cl,28.5%,"8.2 µM [rising, partial curve, poor fit]",
Cc1ccc2ncnc(Nc3ccc(C)c(C)c3)c2c1,33.5%,"11.6 µM [falling, partial curve]","4.61 µM [rising, full curve, poor fit]"
